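Luminescence from an EWS-FLI1 target-promoter (NR0B1) reporter, set against a CMV-promoter reporter, two days after silencing single genes in TC32 Ewing sarcoma cells.
Each siRNA was applied at 20 nM.
A z-score of the log NR0B1-over-CMV signal, less the median of siRNAs with the same seed; more negative means a stronger specific loss of the NR0B1 reporter.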

This is part of the screen; most of the strongest results are not listed here.
Sequences are the guide (antisense) strand, without overhang.

strand | target gene | seed-corrected z-score
UACCCAUAAGUCGUGAUGC | LOC344382 | 0.5545
UUCAUCUUAAGUCUCUCUU | SPRR1B | 0.7398
CAUUGUAUUGGCAGUAACC | SF1 | 0.2528
AAUCUGUCUGCAGCAAUGC | PCDH20 | -0.09197
UUUCCGAUCAUGGUGUAGG | KIF26B | -0.5862
UAGAUUACUAGGUUUUAGG | MAPK14 | -0.1128
UUACUAAUGACCUGCCGCG | EIF2AK3 | -0.5757
UUCUCAAAGAGUUCUGCCC | POLL | -0.515
UUCAUUCGAUUCUUCAUUG | IBSP | 0.2136
UGAGCUACCACAACAUCUG | GEMIN2 | -0.7156
UGUUUGUCGCUGUUCUCCC | CBFB | -1.513
UAAUGGAAUCCUUCUUACC | SHOX | 0.5232
UAUGAUGUAGAUACCAUCA | RPSAP47 | 0.9965
UCUGAGUCCACUACUAUCC | RBM26 | 0.9174
UUCGUUUCUAGGUUAUAGC | KLHL14 | 0.2987
UCCGGUUAUACCUAGCUUC | PTAR1 | 0.9544
AAUCUUGAAACGUGGGUCC | MFSD4B | 0.4097
UACUCUUUCAAUUUGCUUC | KIAA1456 | -0.6302
UUGACGAAGAGGAUGUGCU | GPX5 | 0.6548
UUAGUAGUAACUCCACUAG | VPS13A | 0.2036
UCUCCAACUACAGUUAUCG | PRPSAP1 | 0.4165
UCUUUGAAUGCCUUGAUGG | EGR3 | 0.8382
AAUUGAAGCAGUUGUAGGG | WI2-2373I1.2 | -1.546
UUAGUAGUCCAGCUUUCCC | PIK3CB | -0.4958
UAACCAAUUUAUGCAACUC | ZNF839 | -0.5096
UACAGUGCAAUGUACUCUC | GOLGA2 | -0.1661
UCUUGCUCGAUUCUGUUGC | MFRP | -0.5281
UAACCCAUGAGGAUGCAGG | SLC5A2 | 0.11
UCACCUUAACCUUCUGUGG | NOB1 | 1.118
AUCAUGCUUAGAUCUUUGC | SERPINB3 | -1.108
UGCAAGUCCCUUGUUAUGC | SFT2D2 | -0.6565
AUCUUGACAAGGAGCUUCC | MECP2 | -0.01566
UUUUGAUCCACGAAGUUUG | TNFAIP2 | -0.4687
UUUCUGUACUACCACAUCC | PSMD2 | -0.4833
UUUGUCCACUCGUAUCUGC | ZNF532 | -0.9921
UUCUGUUGAGCCUUGAACC | LOC643675 | 0.1419
UAGAUUGUCUCUAUAAUUC | GADD45B | 0.2326
UUGAUGUACAUGUGGAUGG | CLPP | -0.3937
AUUGUAUCUAGACAAAGAC | BTBD1 | -1.467
UUCUCUAUCAGUUUUGCUG | EEF2 | -0.9364
UUAACGAUGUGAUUUACCC | REV1 | 0.3556
UUACUUUGCUCAAUGAGGC | AP5Z1 | -0.2052
UCUAUUGUACCGGAGGUCC | LRRC27 | -0.2725
UUCUUUAGCAAUAAACAGU | P2RY13 | 0.09167
UAGUUUACAAGCCUCCAGG | UPK1B | -0.151
UAAGCUCUUCUCUAUCUCC | CCDC127 | 1.153
UUACUUCUCGCAUCAAACG | CCDC172 | -0.1947
UCAUGAACAGCAACAGGCC | SLC37A4 | -0.3925
AUUCUUUACAAUUGUACGG | ZNF230 | -0.3822
UCAUUAGCUACAAUUUUGU | BRD9 | 0.6865
UCUAAUUGAAAUGCGACUC | PDK1 | 0.08819
UAUUCCACCAGAAUCGUAG | TRRAP | -1.425
UUGAGUAGGACCUCUGAUU | CCDC105 | -0.7348
UCUUGAGAGAGUCCUCCGC | LINC00273 | 0.2176
UAUCUAGAAAGGGAUCUUU | WFDC9 | 0.1384
UCUUUGACAGGCUUCCAGC | OAS1 | 1.251
AAACUUAACAAGGGCUUUG | ATP7B | 0.1663
UAAGUGGUGUCGACAACUC | PROS1 | -0.2861
AAUCAUCCAAGAAAGACCG | WIPF2 | 1.682
UGUGGUCCAGGACUCAUCG | JAZF1 | -0.02829
AUCUUUGUCAGCAGGUUUU | COMMD9 | 0.5478
UUUUUAGCAUGCGUUCUCG | ZNF556 | -0.01506
AAGUUGAUGACGGAAAUUC | LAGE3 | -1.677
UUCCGGUAACUAUCAAGAG | TTK | -0.5294
UGACGAAACAAGCACAUGC | ACER2 | 0.4617
UUCCCUGUAGUCUCAAUGC | SLC6A18 | 0.03672
UUGGUAACGUACUCAUUCC | MYH3 | 0.02969
AUUGGUGUUCUGAAUAGGC | TBP | 0.9169
UUUCGAGCAAAGGUCUUGC | ZNF83 | -0.7595
AUACGUUACAUUCAUACGG | ZNF658 | 0.3349
UCUUAGCAAAUAAAACGCG | C6 | 0.4472

Once more, the final 4:

strand,target gene,seed-corrected z-score
AUUGGUGUUCUGAAUAGGC,TBP,0.9169
UUUCGAGCAAAGGUCUUGC,ZNF83,-0.7595
AUACGUUACAUUCAUACGG,ZNF658,0.3349
UCUUAGCAAAUAAAACGCG,C6,0.4472

From PubChem BioAssay record AID1159506 (NCATS, 2015).